Results are given in words; binding and its absence hold for the method and conditions named. Some binding calls cover weakened binding; strength is not graded here.
Target: TIM-3重组蛋白 (human) (UniProt Q8TDQ0)
Assay: ELISA: TIM-3 coated, biotinylated Galectin-9-rFc as positive control, HRP-streptavidin

The chains behind the UniProt entries cited, without tags or fusion partners. Residues count along the entry.
UniProt Q8TDQ0, residues 22-200: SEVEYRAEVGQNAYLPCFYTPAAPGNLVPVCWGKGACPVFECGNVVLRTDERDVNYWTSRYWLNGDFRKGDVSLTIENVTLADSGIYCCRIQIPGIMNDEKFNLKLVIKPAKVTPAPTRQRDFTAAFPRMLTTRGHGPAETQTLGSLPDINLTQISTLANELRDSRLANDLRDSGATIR

Galectin-9-rFc (from UniProt O00182 1-355) (Fc fusion)
binding: binds
